Test results taken from the supplement of paper PMC7661543.
± gives the standard deviation of the averaged measurements. The effect of the compound repeats well; differences between the knockouts mostly do not.

System: BT-20
Experiment: relative cell number vs DMSO control (72 h) (% of DMSO); higher = less growth inhibition (more cells)
Description: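 QMAP-Seq: a pool of 5 breast cancer cell lines (ZR-75-1, SKBR3, HCC-38, MDA-MB-231, BT-20), each carrying 12 doxycycline-inducible Cas9 sgRNA perturbations (11 knockouts plus non-targeting sgNT), was treated with compounds for 72 h at four 10-fold doses (10 nM-10 uM or 1 nM-1 uM range). Barcodes were amplified and sequenced, and cell number was interpolated from 293T spike-in standard curves. The result is expressed as % of the median of DMSO wells. Two biological replicates.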

CC(C)(C)c1nc(-c2cccc(NS(=O)(=O)c3c(F)cccc3F)c2F)c(-c2ccnc(N)n2)s1 [Dabrafenib]
relative cell number (sgRNA knockout: sgATF3, 10 nM): 137 ± 24
relative cell number (sgRNA knockout: sgATF3, 100 nM): 126 ± 3.1
relative cell number (sgRNA knockout: sgATF3, 1000 nM): 114 ± 8.6
relative cell number (sgRNA knockout: sgATF3, 10000 nM): 119 ± 3.8
relative cell number (sgRNA knockout: sgATF4, 10 nM): 152 ± 31
relative cell number (sgRNA knockout: sgATF4, 100 nM): 126 ± 40
relative cell number (sgRNA knockout: sgATF4, 1000 nM): 107 ± 4.9
relative cell number (sgRNA knockout: sgATF4, 10000 nM): 114 ± 3.6
relative cell number (sgRNA knockout: sgATF6, 10 nM): 134 ± 38
relative cell number (sgRNA knockout: sgATF6, 100 nM): 92.5 ± 2.3
relative cell number (sgRNA knockout: sgATF6, 1000 nM): 120 ± 7
relative cell number (sgRNA knockout: sgATF6, 10000 nM): 128 ± 26
relative cell number (sgRNA knockout: sgATG7, 10 nM): 142 ± 5.3
relative cell number (sgRNA knockout: sgATG7, 100 nM): 136 ± 31
relative cell number (sgRNA knockout: sgATG7, 1000 nM): 96.9 ± 11
relative cell number (sgRNA knockout: sgATG7, 10000 nM): 117 ± 2.4
relative cell number (sgRNA knockout: sgERN1, 10 nM): 141 ± 40
relative cell number (sgRNA knockout: sgERN1, 100 nM): 122 ± 16
relative cell number (sgRNA knockout: sgERN1, 1000 nM): 93.5 ± 32
relative cell number (sgRNA knockout: sgERN1, 10000 nM): 118 ± 12
relative cell number (sgRNA knockout: sgHSF1, 10 nM): 150 ± 23
relative cell number (sgRNA knockout: sgHSF1, 100 nM): 119 ± 3.1
relative cell number (sgRNA knockout: sgHSF1, 1000 nM): 108 ± 5
relative cell number (sgRNA knockout: sgHSF1, 10000 nM): 111 ± 1.7
relative cell number (sgRNA knockout: sgHSF2, 10 nM): 144 ± 25
relative cell number (sgRNA knockout: sgHSF2, 100 nM): 116 ± 6.8
relative cell number (sgRNA knockout: sgHSF2, 1000 nM): 102 ± 18
relative cell number (sgRNA knockout: sgHSF2, 10000 nM): 109 ± 19
relative cell number (sgRNA knockout: sgKEAP1, 10 nM): 141 ± 29
relative cell number (sgRNA knockout: sgKEAP1, 100 nM): 112 ± 1.6
relative cell number (sgRNA knockout: sgKEAP1, 1000 nM): 97 ± 28
relative cell number (sgRNA knockout: sgKEAP1, 10000 nM): 114 ± 14
relative cell number (sgRNA knockout: sgNFE2L2, 10 nM): 146 ± 23
relative cell number (sgRNA knockout: sgNFE2L2, 100 nM): 134 ± 6.2
relative cell number (sgRNA knockout: sgNFE2L2, 1000 nM): 100 ± 10
relative cell number (sgRNA knockout: sgNFE2L2, 10000 nM): 104 ± 1.4
relative cell number (sgRNA knockout: sgSLC35F2, 10 nM): 136 ± 20
relative cell number (sgRNA knockout: sgSLC35F2, 100 nM): 117 ± 16
relative cell number (sgRNA knockout: sgSLC35F2, 1000 nM): 104 ± 1.5
relative cell number (sgRNA knockout: sgSLC35F2, 10000 nM): 107 ± 15
relative cell number (sgRNA knockout: sgXBP1, 10 nM): 142 ± 40
relative cell number (sgRNA knockout: sgXBP1, 100 nM): 123 ± 5.1
relative cell number (sgRNA knockout: sgXBP1, 1000 nM): 112 ± 7.6
relative cell number (sgRNA knockout: sgXBP1, 10000 nM): 116 ± 13
